Results are given in words; binding and its absence hold for the method and conditions named. Binding seen in cells or lysates may run through a third protein. For some of these results: Binding calls can cover weak binding; strength is not graded here. For some of these results: Tags and fused reporters may be left off the sequences shown.

The target of assay [1] is T1, ESA-1^(3 x FLAG) (Neurospora crassa) (UniProt Q7S9B6).
T1 sequence: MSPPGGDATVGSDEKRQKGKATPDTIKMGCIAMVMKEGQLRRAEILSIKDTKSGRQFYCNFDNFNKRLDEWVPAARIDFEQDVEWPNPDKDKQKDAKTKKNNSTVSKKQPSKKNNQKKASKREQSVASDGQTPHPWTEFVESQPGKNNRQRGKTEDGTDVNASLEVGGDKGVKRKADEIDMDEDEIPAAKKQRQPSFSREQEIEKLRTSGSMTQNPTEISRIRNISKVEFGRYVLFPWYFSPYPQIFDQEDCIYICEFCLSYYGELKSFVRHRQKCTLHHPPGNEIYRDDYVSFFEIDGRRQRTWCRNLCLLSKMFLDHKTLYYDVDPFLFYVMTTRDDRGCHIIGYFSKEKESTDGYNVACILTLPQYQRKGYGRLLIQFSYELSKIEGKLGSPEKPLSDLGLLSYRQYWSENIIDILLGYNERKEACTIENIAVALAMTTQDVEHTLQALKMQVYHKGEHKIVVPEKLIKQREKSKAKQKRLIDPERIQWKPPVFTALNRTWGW
As to the kind of experiment: co-IP; immunodepletion from cultures grown in constant light: BRD-8^V5 depleted with V5 antibody, or ESA-1^(3 x FLAG) depleted by two FLAG IPs and the supernatant then pulled down with V5 resin.

Assay [2] addresses T1, ESA-1^(3 x FLAG) (Neurospora crassa). Briefly: co-IP; sequential: lysate of bye-1^(3 x HA)/brd-8^V5/esa-1^(3 x FLAG) grown in constant light, first IP on FLAG-antibody resin, elution with 3 x FLAG peptide, second IP of the eluate on V5-antibody resin; bye-1^(3 x HA) as negative control.
Assay [3] deals with BRD-8^V5 (BRD-8 C-terminally tagged with V5) (Neurospora crassa) (UniProt Q7SC01). As to the kind of experiment: co-IP; 2 mg of total Neurospora protein with 20 uL V5 agarose or FLAG M2 resin, 4 °C for 2 h; washed twice with 50 mM HEPES pH 7.4, 137 mM NaCl, 10% glycerol, 0.4% NP-40; Western blot for the epitope tags.
The target of assay [4] is Neurospora BRD-8^V5 co-expressed in E. coli (Neurospora crassa) (UniProt Q7SC01). As to the kind of experiment: co-IP; Neurospora BRD-8^V5 co-expressed with BYE-1, ARP-4 or EPL-1 in E. coli; immunoprecipitation.
Assay [5] deals with BRD-8^V5 (BRD-8 C-terminally tagged with V5) (Neurospora crassa) (UniProt Q7SC01). As to the kind of experiment: co-IP; immunodepletion from cultures grown in constant light: BRD-8^V5 depleted with V5 antibody, or ESA-1^(3 x FLAG) depleted by two FLAG IPs and the supernatant then pulled down with V5 resin.
For assay [6], the target named is BRD-8^∆703-1029 (V5-tagged) (Neurospora crassa). Briefly: co-IP; 2 mg of total Neurospora protein with 20 uL V5 agarose or FLAG M2 resin, 4 °C for 2 h; washed twice with 50 mM HEPES pH 7.4, 137 mM NaCl, 10% glycerol, 0.4% NP-40; Western blot for the epitope tags. For orientation: A western blot detects proteins with antibodies after separation by electrophoresis.
Assay [7] concerns the target brd-8^∆1030-1306 (V5-tagged) (Neurospora crassa). Described as above.
Assay [8] concerns the target BRD-8^∆2-348 (V5-tagged) (Neurospora crassa). The assay is described as above.
Assay [9] has as its target brd-8^∆349-702 (V5-tagged) (Neurospora crassa). Described as above.

“BRD-8^V5 (BRD-8 C-terminally tagged with V5) (from UniProt Q7SC01)”: the binding entry in [1] and in [2] was “binds” throughout.

B1: EAF-6 tagged with 3 x FLAG or V5 (protein, UniProt Q7SDW6 1-187)
chain: MMDNSGPKMGAADGAAGIPYYEKQRQHLKELLNKKKLLEKRLLAQEESIYQKETEYLENTPAGNIITGFDNYTKGTANVAAQRRKTGLTDANRVFSRSSISYNPAAQQDSQTPASSAPASHAPTPVSTSFNNKDGASSAPTPTSATAGKANSKKKKAATSGGAGVEDSETDSRETKKARTNFGAVRK
Consider B1, for which the binding entry in assay [3] is “binds”.

B2: ARP-4 co-expressed in E. coli (protein, UniProt Q7SHR0 1-469)
chain: MSHQQPLSSSVQPTDIYGGDEVSALVLDPGYCNTRAGYAGEEMPKQVLPSFYGHINGRDVFGDEYIVPKPGFEVRNYMNRDSVVEDWDAATRMWEHVLVKRLQPERSTPPSKKGINISDDGDVPMEDDGNNNEDATDALEKPLAENPLLMTEAPWNSPKAREKAIEISMETWGVPAFWLSKTPVLAAFAAGKATALVIDVGGANTSVTAIHDGMVLKRSIQRSPVGGVWLSSQICKMWDGSEPKVDVVPRFMVESKKPVEAGAPAEANLRKFNFDIHPSFRAYEEERVLTEFKESVVEVWRGPQRFTTPGNEDAVRTQPGRVFEMPDGSNQMWREQRFKVSEGMWDETAAYNSTDEEGRVTKAQTIPALIKAALEGVDVDLRPNILGNVVVTGSTSLLNGFNDRLNHELAQMYPGVKIKIHAAGLTTERRFGAWIGGSILASLGTFHQMWISRKEYDENGAGIVEKRCK
As for B2, the binding entry in assay [4] is listed as “binds”.

B3: ESA-1 tagged with 3 x FLAG or V5 (enzyme, UniProt Q7S9B6 1-506)
chain: MSPPGGDATVGSDEKRQKGKATPDTIKMGCIAMVMKEGQLRRAEILSIKDTKSGRQFYCNFDNFNKRLDEWVPAARIDFEQDVEWPNPDKDKQKDAKTKKNNSTVSKKQPSKKNNQKKASKREQSVASDGQTPHPWTEFVESQPGKNNRQRGKTEDGTDVNASLEVGGDKGVKRKADEIDMDEDEIPAAKKQRQPSFSREQEIEKLRTSGSMTQNPTEISRIRNISKVEFGRYVLFPWYFSPYPQIFDQEDCIYICEFCLSYYGELKSFVRHRQKCTLHHPPGNEIYRDDYVSFFEIDGRRQRTWCRNLCLLSKMFLDHKTLYYDVDPFLFYVMTTRDDRGCHIIGYFSKEKESTDGYNVACILTLPQYQRKGYGRLLIQFSYELSKIEGKLGSPEKPLSDLGLLSYRQYWSENIIDILLGYNERKEACTIENIAVALAMTTQDVEHTLQALKMQVYHKGEHKIVVPEKLIKQREKSKAKQKRLIDPERIQWKPPVFTALNRTWGW
As for B3, the binding result in assay [3] is reported as “binds”.

B4: ESA-1^(3 x FLAG) (enzyme, UniProt Q7S9B6 1-506)
chain: MSPPGGDATVGSDEKRQKGKATPDTIKMGCIAMVMKEGQLRRAEILSIKDTKSGRQFYCNFDNFNKRLDEWVPAARIDFEQDVEWPNPDKDKQKDAKTKKNNSTVSKKQPSKKNNQKKASKREQSVASDGQTPHPWTEFVESQPGKNNRQRGKTEDGTDVNASLEVGGDKGVKRKADEIDMDEDEIPAAKKQRQPSFSREQEIEKLRTSGSMTQNPTEISRIRNISKVEFGRYVLFPWYFSPYPQIFDQEDCIYICEFCLSYYGELKSFVRHRQKCTLHHPPGNEIYRDDYVSFFEIDGRRQRTWCRNLCLLSKMFLDHKTLYYDVDPFLFYVMTTRDDRGCHIIGYFSKEKESTDGYNVACILTLPQYQRKGYGRLLIQFSYELSKIEGKLGSPEKPLSDLGLLSYRQYWSENIIDILLGYNERKEACTIENIAVALAMTTQDVEHTLQALKMQVYHKGEHKIVVPEKLIKQREKSKAKQKRLIDPERIQWKPPVFTALNRTWGW
Turning to B4, the binding result in assay [5] is on record as “binds”; in assay [6] it was “binds”; in assay [3], “binds”; in [7] it was “binds”; in [8], “no binding”; in assay [9], “binds”.

B5: EPL-1 co-expressed in E. coli (protein, UniProt Q7S747 1-589)
chain: MATRKVRYKKLSVKTQLAVLREDQIEASEYESLTSENQIATGVEQAEENEYHLQAVLKGAGVAADQEIPVPPPQQSELDYDQFYPQKVAKTSTYIRFSQTVEECISCLYDMTEDDETFLKSYNMKLTPSARLSEDDFERIMDVYEDMAANITPFSAIDQTVPSYQEMLRGLEPLDSTKVMVHAKQIYEYWKSRREISKNRPLNPTLKFETHAESDELDPYVCFRRREIRQTRKTRARDVQSADKLKRLRKELEEGRQLILAAHNRELLKADMLKVERAIFDQRAIIKEQKLRLGIRTGDEDLVNQKPQKRKAPEAPSAQRPPPPPQIRMPVRPDGRPAESDLVQLSDRLAEKNAELIIEIEKKIQNHIDWNKNYVDLTGKPLSPVQGPRQDLGFRPAKTQYLMTPPASASSGSMDEPTPMDLDKPKPNPPPPVKFRGVAQDEQSLAHPPSYRRRIGRLNRLWIDRRGLPSPARDLSEEQSDRWKYDQSSDDEDDAPVYMLDPFDTKALRYRASIPLQTVTRPPPPVINRQFIPPGAVPQQLAQSSFAPGQPQPQSQPQPNQSQSLPLPQPQQPVAQPQPQPQPQAQPVS
As for B5, the binding result in assay [4] is reported as “binds”.

B6: YAF-9 tagged with 3 x FLAG or V5 (protein, UniProt Q7RZK7 1-309)
chain: MAPPTGKRVKGVQIFRPFVYGTTARPFDEKTNPKPPGIPDDHTHSWTVFIKGIDDVDITYWLRRVQFKLHESIPNHVRMVEGVKGQPFQIHETGWGEFEITMKLYYVPESSEKPQTLYHHLRLHPFGRTEEEKEAMRLNGGEVISWVYEEQIFNEPYEPFYDILISGALPPSASTLKDGGGGGGSGAATPTSANTPGASSSKGGNKKGHERSHSRASVSTNKDGKNNNESKEEPFVIQKSEGGVLERSAMIPLVNRPGQPFSRETEQLEIQKLKEAKLKVDEMKKQMMEELEKKQKRLEALRAESAKAP
With B6, in assay [3], the binding entry is on record as “binds”.

These data come from article PMC10250352.
